Measured values from paper doi:10.1101/2021.08.25.457671.
These are yes or no findings as the source states them, for the method shown. In cells and extracts the contact can be indirect. Some results given as binding are weak or reduced against the parent protein; the word gives no strength. For part of these data: Tags and fused reporters may be left off the sequences shown. Each block holds one binder with its values, some of them ahead of it.

Chains of the proteins cited; added tags and fusions are not shown.
UniProt P10591: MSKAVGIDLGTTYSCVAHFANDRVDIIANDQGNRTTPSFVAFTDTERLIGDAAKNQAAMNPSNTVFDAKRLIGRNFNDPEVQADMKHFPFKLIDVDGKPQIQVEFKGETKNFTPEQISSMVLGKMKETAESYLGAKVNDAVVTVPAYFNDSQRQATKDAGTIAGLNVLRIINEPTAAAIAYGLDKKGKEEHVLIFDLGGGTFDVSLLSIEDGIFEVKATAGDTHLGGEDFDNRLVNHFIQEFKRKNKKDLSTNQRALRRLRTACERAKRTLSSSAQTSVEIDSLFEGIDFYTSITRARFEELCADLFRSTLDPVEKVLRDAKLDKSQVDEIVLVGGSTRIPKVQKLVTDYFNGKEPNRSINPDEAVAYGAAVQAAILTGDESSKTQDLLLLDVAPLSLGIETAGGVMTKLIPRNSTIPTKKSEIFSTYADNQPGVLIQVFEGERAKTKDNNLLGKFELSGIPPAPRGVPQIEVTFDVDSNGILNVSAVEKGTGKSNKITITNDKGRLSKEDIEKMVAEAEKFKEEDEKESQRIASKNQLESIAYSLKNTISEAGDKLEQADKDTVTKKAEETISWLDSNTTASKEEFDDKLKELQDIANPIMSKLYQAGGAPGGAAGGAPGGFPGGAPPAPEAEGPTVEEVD
UniProt P47079: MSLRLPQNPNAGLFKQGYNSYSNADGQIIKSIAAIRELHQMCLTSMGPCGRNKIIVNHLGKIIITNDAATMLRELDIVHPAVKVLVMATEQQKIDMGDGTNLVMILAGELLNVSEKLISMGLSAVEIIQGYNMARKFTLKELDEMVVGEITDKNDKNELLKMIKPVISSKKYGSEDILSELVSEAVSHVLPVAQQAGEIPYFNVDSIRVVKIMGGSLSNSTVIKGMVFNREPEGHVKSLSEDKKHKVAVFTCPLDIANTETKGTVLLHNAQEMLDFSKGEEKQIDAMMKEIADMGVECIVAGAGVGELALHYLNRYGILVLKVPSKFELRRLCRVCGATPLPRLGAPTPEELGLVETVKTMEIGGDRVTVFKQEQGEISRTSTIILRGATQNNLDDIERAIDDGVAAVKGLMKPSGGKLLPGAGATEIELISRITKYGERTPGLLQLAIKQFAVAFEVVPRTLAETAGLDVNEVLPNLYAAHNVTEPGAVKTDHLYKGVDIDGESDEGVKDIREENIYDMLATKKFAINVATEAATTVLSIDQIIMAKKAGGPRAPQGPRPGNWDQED
UniProt P32480: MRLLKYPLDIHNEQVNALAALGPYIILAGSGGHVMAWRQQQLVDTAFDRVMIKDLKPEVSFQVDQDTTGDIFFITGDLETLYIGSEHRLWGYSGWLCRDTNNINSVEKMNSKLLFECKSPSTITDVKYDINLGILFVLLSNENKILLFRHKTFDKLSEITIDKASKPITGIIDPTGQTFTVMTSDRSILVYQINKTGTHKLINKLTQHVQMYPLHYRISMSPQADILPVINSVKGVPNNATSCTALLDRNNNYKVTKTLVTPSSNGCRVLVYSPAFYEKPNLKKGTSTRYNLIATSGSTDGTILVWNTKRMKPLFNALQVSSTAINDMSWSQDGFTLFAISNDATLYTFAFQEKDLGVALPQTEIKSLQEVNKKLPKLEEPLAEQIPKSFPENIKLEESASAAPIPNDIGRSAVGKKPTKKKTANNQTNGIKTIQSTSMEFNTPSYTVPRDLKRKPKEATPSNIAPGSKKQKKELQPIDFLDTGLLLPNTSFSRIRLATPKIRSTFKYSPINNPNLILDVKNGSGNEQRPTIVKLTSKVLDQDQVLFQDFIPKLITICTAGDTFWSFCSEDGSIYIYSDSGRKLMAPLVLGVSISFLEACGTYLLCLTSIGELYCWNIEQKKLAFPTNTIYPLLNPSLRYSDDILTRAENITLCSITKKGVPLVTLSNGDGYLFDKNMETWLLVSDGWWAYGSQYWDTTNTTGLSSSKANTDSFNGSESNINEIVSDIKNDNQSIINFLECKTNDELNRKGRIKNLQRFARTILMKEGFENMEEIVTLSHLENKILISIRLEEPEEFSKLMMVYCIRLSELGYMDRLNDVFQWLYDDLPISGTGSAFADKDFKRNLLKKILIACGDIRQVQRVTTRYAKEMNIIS

Experiments:
[1] = target: HIS-tagged Ssa1 (budding yeast) (UniProt P10591); assay: cross-linking
[2] = target: T1, Mtw1 (bait of the co-IP in yeast) (budding yeast) (UniProt P39731); assay: co-IP
T1 sequence: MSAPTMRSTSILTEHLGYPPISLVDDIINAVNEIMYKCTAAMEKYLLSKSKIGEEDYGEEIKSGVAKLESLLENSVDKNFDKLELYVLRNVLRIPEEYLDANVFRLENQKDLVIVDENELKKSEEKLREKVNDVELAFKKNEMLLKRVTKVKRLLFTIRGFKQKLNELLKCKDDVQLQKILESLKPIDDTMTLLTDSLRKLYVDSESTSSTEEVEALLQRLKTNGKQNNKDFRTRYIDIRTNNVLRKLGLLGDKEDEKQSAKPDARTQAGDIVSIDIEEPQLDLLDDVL

[3] = target: T2, HA-tagged Ura8 (budding yeast) (UniProt P38627); assay: co-IP
T2 sequence: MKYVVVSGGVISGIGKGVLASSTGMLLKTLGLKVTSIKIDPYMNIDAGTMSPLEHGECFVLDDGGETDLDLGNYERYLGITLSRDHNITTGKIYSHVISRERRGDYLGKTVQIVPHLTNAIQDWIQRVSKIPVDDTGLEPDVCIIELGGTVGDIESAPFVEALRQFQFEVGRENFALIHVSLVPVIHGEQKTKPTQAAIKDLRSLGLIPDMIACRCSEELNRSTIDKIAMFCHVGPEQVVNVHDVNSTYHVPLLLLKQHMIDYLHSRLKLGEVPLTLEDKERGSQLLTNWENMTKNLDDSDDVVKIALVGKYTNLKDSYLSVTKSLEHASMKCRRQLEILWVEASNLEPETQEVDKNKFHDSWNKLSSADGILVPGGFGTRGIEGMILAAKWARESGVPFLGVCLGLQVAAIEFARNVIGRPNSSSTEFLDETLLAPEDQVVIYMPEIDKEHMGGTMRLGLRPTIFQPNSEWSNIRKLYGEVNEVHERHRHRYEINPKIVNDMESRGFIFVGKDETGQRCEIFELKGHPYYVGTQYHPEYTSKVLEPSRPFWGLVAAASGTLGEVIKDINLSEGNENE

[4] = target: T3, HA-tagged Pcl7 (budding yeast) (UniProt P40186); assay: co-IP
T3 sequence: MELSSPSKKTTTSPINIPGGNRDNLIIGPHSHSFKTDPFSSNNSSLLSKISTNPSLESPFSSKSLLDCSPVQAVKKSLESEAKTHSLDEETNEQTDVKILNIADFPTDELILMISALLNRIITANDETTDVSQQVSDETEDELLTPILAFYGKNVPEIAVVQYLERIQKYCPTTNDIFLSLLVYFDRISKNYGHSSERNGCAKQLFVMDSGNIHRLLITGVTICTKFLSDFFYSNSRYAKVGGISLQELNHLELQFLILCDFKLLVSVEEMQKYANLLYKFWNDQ

[5] = target: HA-tagged Cct8 (budding yeast) (UniProt P47079); assay: co-IP
[6] = target: Hir2 (budding yeast) (UniProt P32480); assay: co-IP
[7] = target: Ssa1, FLAG-tagged and HA-tagged constructs expressed together in yeast (budding yeast) (UniProt P10591); assay: co-IP

binding [1]: binds
B1: Ste11 cross-linked to HIS-Ssa1 (dimethylated at R305) (enzyme, UniProt P23561 1-717)
chain: MEQTQTAEGTDLLIGDEKTNDLPFVQLFLEEIGCTQYLDSFIQCNLVTEEEIKYLDKDILIALGVNKIGDRLKILRKSKSFQRDKRIEQVNRLKNLMEKVSSLSTATLSMNSELIPEKHCVIFILNDGSAKKVNVNGCFNADSIKKRLIRRLPHELLATNSNGEVTKMVQDYDVFVLDYTKNVLHLLYDVELVTICHANDRVEKNRLIFVSKDQTPSDKAISTSKKLYLRTLSALSQVGPSSSNLLAQNKGISHNNAEGKLRIDNTEKDRIRQIFNQRPPSEFISTNLAGYFPHTDMKRLQKTMRESFRHSARLSIAQRRPLSAESNNIGDILLKHSNAVDMALLQGLDQTRLSSKLDTTKIPKLAHKRPEDNDAISNQLELLSVESGEEEDHDFFGEDSDIVSLPTKIATPKNWLKGACIGSGSFGSVYLGMNAHTGELMAVKQVEIKNNNIGVPTDNNKQANSDENNEQEEQQEKIEDVGAVSHPKTNQNIHRKMVDALQHEMNLLKELHHENIVTYYGASQEGGNLNIFLEYVPGGSVSSMLNNYGPFEESLITNFTRQILIGVAYLHKKNIIHRDIKGANILIDIKGCVKITDFGISKKLSPLNKKQNKRASLQGSVFWMSPEVVKQTATTAKADIWSTGCVVIEMFTGKHPFPDFSQMQAIFKIGTNTTPEIPSWATSEGKNFLRKAFELDYQYRPSALELLQHPWLDAHII
modifications: dimethylation on R305 (on the cross-linked peptide)

binding [1]: binds
B2: Mtw1 cross-linked to HIS-Ssa1 (phosphorylated at Y86) (protein, UniProt P39731 1-289)
chain: T1 sequence
modifications: phosphotyrosine at 86 (at the identified site of interaction)

binding [1]: binds
B3: Ura8 found by mass spectrometry with HIS-Ssa1 (protein, UniProt P38627 1-578)
chain: T2 sequence

binding [1]: binds | binding [2]: binds | binding [3]: binds | binding [4]: binds | binding [5]: binds | binding [6]: binds
B4: Sse1 (protein, UniProt P32589 1-693)
chain: MSTPFGLDLGNNNSVLAVARNRGIDIVVNEVSNRSTPSVVGFGPKNRYLGETGKNKQTSNIKNTVANLKRIIGLDYHHPDFEQESKHFTSKLVELDDKKTGAEVRFAGEKHVFSATQLAAMFIDKVKDTVKQDTKANITDVCIAVPPWYTEEQRYNIADAARIAGLNPVRIVNDVTAAGVSYGIFKTDLPEGEEKPRIVAFVDIGHSSYTCSIMAFKKGQLKVLGTACDKHFGGRDFDLAITEHFADEFKTKYKIDIRENPKAYNRILTAAEKLKKVLSANTNAPFSVESVMNDVDVSSQLSREELEELVKPLLERVTEPVTKALAQAKLSAEEVDFVEIIGGTTRIPTLKQSISEAFGKPLSTTLNQDEAIAKGAAFICAIHSPTLRVRPFKFEDIHPYSVSYSWDKQVEDEDHMEVFPAGSSFPSTKLITLNRTGDFSMAASYTDITQLPPNTPEQIANWEITGVQLPEGQDSVPVKLKLRCDPSGLHTIEEAYTIEDIEVEEPIPLPEDAPEDAEQEFKKVTKTVKKDDLTIVAHTFGLDAKKLNELIEKENEMLAQDKLVAETEDRKNTLEEYIYTLRGKLEEEYAPFASDAEKTKLQGMLNKAEEWLYDEGFDSIKAKYIAKYEELASLGNIIRGRYLAKEEEKKQAIRSKQEASQMAAMAEKLAAQRKAEAEKKEEKKDTEGDVDMD

binding [7]: binds
B5: Rnr2 (protein, UniProt P09938 1-399)
chain: MPKETPSKAAADALSDLEIKDSKSNLNKELETLREENRVKSDMLKEKLSKDAENHKAYLKSHQVHRHKLKEMEKEEPLLNEDKERTVLFPIKYHEIWQAYKRAEASFWTAEEIDLSKDIHDWNNRMNENERFFISRVLAFFAASDGIVNENLVENFSTEVQIPEAKSFYGFQIMIENIHSETYSLLIDTYIKDPKESEFLFNAIHTIPEIGEKAEWALRWIQDADALFGERLVAFASIEGVFFSGSFASIFWLKKRGMMPGLTFSNELICRDEGLHTDFACLLFAHLKNKPDPAIVEKIVTEAVEIEQRYFLDALPVALLGMNADLMNQYVEFVADRLLVAFGNKKYYKVENPFDFMENISLAGKTNFFEKRVSDYQKAGVMSKSTKQEAGAFTFNEDF

binding [1]: binds
B6: Pcl7 found by mass spectrometry with HIS-Ssa1 (protein, UniProt P40186 1-285)
chain: T3 sequence

binding [1]: binds
B7: Pim1 cross-linked to HIS-Ssa1 (phosphorylated at S974) (enzyme, UniProt P36775 99-1133)
chain: KDDSTSQKKDEDVKIVPDEKDTDNDVEPTRDDEIVNKDQEGEASKNSRSSASGGGQSSSSRSDSGDGSSKQKPPKDVPEVYPQMLALPIARRPLFPGFYKAVVISDERVMKAIKEMLDRQQPYIGAFMLKNSEEDTDVITDKNDVYDVGVLAQITSAFPSKDEKTGTETMTALLYPHRRIKIDELFPPNEEKEKSKEQAKDTDTETTVVEDANNPEDQESTSPATPKLEDIVVERIPDSELQHHKRVEATEEESEELDDIQEGEDINPTEFLKNYNVSLVNVLNLEDEPFDRKSPVINALTSEILKVFKEISQLNTMFREQIATFSASIQSATTNIFEEPARLADFAAAVSAGEEDELQDILSSLNIEHRLEKSLLVLKKELMNAELQNKISKDVETKIQKRQREYYLMEQLKGIKRELGIDDGRDKLIDTYKERIKSLKLPDSVQKIFDDEITKLSTLETSMSEFGVIRNYLDWLTSIPWGKHSKEQYSIPRAKKILDEDHYGMVDVKDRILEFIAVGKLLGKVDGKIICFVGPPGVGKTSIGKSIARALNRKFFRFSVGGMTDVAEIKGHRRTYIGALPGRVVQALKKCQTQNPLILIDEIDKIGHGGIHGDPSAALLEVLDPEQNNSFLDNYLDIPIDLSKVLFVCTANSLETIPRPLLDRMEVIELTGYVAEDKVKIAEQYLVPSAKKSAGLENSHVDMTEDAITALMKYYCRESGVRNLKKHIEKIYRKAALQVVKKLSIEDSPTSSADSKPKESVSSEEKAENNAKSSSEKTKDNNSEKTSDDIEALKTSEKINVSISQKNLKDYVGPPVYTTDRLYETTPPGVVMGLAWTNMGGCSLYVESVLEQPLHNCKHPTFERTGQLGDVMKESSRLAYSFAKMYLAQKFPENRFFEKASIHLHCPEGATPKDGPSAGVTMATSFLSLALNKSIDPTVAMTGELTLTGKVLRIGGLREKAVAAKRSGAKTIIFPKDNLNDWEELPDNVKEGLEPLAADWYNDIFQKLFKDVNTKEGNSVWKAEFEILDAKKEKD
modifications: phosphoserine at 974 (on the cross-linked peptide)
